Experimental data reported in patent EP2801357A1, “Carboxylated stilbenes for activating AMPK and sirtuins” (IMD Natural Solutions GmbH, priority 2013, dated 2014).

Tested on: 5'-AMP-activated protein kinase (AMPK)
Test: Western blot analysis of AMPK phosphorylation in NHEK
Format: cell-based, human
Settings: 48 h, loading control

CCOC(=O)c1c(O)cccc1/C=C/c1ccc(OCC)cc1 [(I-1)]
GAPDH (Experiment 1, Membrane 1, 3 µM): 480 AU/mm^2 | GAPDH (Experiment 1, Membrane 1, 10 µM): 528 AU/mm^2 | GAPDH (Experiment 1, Membrane 1, 30 µM): 599 AU/mm^2

Oc1ccc(/C=C/c2cc(O)cc(O)c2)cc1 [trans-resveratrol]
GAPDH (Experiment 1, Membrane 2, 300 µM): 282 AU/mm^2 | GAPDH (Experiment 2, 10 µM): 2511753 AU/mm^2 | GAPDH (Experiment 2, 30 µM): 2177595 AU/mm^2 | GAPDH (Experiment 2, 100 µM): 2479461 AU/mm^2 | GAPDH (Experiment 2, 200 µM): 2561347 AU/mm^2 | GAPDH (Experiment 2, 300 µM): 2912376 AU/mm^2

NC(=O)c1ncn([C@@H]2O[C@H](CO)[C@@H](O)[C@H]2O)c1N [AICAR, 5-Amino-1-ß-D-ribofuranosyl-imidazole-4-carboxamide]
GAPDH (Experiment 1, Membrane 1, 1000 µM): 518 AU/mm^2 | GAPDH (Experiment 2, 1000 µM): 2406346 AU/mm^2
